Measured data: PubChem BioAssay AID1159600 (NIAID, 2016)

Aim: 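Which TLR pathway genes support TNF promoter activation by R848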 (primary screen)
System: human THP-1 TNF reporter clone B5, made macrophage-like with PMA
Knock-down reagent: single siRNA against human genes
Time to read-out: 4 h ligand stimulation, assayed 48 to 72 h after siRNA transfection
Treatment: R848 (TLR7/8 agonist) for 4 hours before lysis; dose not given
Read-out: 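Robust z-score of firefly over renilla TNF promoter signal after 4 h R848, plate median/MAD normalised, relative to negative controls, averaged across replicates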
Scale: TNF reporter z-score: higher = stronger TNF promoter reporter signal after R848
Active means: 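siRNAs graded by distance of mean z-score from zero in steps of 1, 1.5, 2 and 2.5; active calls sit at roughly -1.5 or below, or 1.5 or above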
Meaning of the calls: active = strong change in TNF reporter (up or down); inactive = little change
This is an unselected part of 756 reagents. 134 of all reagents (18%) count as active. 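Active includes both reduced and increased reporter signal, though most active siRNAs reduce it; R848 dose unknown.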 A number with no mark means an inactive call. Reagents against one gene are numbered here. Not given: the amount of reagent.

AKT3 (AKT serine/threonine kinase 3) #1 | TNF reporter z-score = 0.111
AKT3 (AKT serine/threonine kinase 3) #2 | TNF reporter z-score = -1.33
AKT3 (AKT serine/threonine kinase 3) #3 | TNF reporter z-score = -1.57 (active)
AKT3 (AKT serine/threonine kinase 3) #4 | TNF reporter z-score = -0.0474
AKT3 (AKT serine/threonine kinase 3) #5 | TNF reporter z-score = 0.192
AKT3 (AKT serine/threonine kinase 3) #6 | TNF reporter z-score = -0.571
PIK3R2 (phosphoinositide-3-kinase regulatory subunit 2) #1 | TNF reporter z-score = 0.0386
PIK3R2 (phosphoinositide-3-kinase regulatory subunit 2) #2 | TNF reporter z-score = -1.37
PIK3R2 (phosphoinositide-3-kinase regulatory subunit 2) #3 | TNF reporter z-score = 0.327
PIK3R2 (phosphoinositide-3-kinase regulatory subunit 2) #4 | TNF reporter z-score = -0.854
PIK3R2 (phosphoinositide-3-kinase regulatory subunit 2) #5 | TNF reporter z-score = 1.09
PIK3R2 (phosphoinositide-3-kinase regulatory subunit 2) #6 | TNF reporter z-score = 0.194
TRAF3 (TNF receptor associated factor 3) #1 | TNF reporter z-score = 1.56 (active)
TRAF3 (TNF receptor associated factor 3) #2 | TNF reporter z-score = -1.13
TRAF3 (TNF receptor associated factor 3) #3 | TNF reporter z-score = -0.173
TRAF3 (TNF receptor associated factor 3) #4 | TNF reporter z-score = -0.884
TRAF3 (TNF receptor associated factor 3) #5 | TNF reporter z-score = -1.29
TRAF3 (TNF receptor associated factor 3) #6 | TNF reporter z-score = 0.089

Targets above whose target name begins with T or t:
TRAF3 (TNF receptor associated factor 3) #1 | TNF reporter z-score = 1.56 (active)
TRAF3 (TNF receptor associated factor 3) #2 | TNF reporter z-score = -1.13
TRAF3 (TNF receptor associated factor 3) #3 | TNF reporter z-score = -0.173
TRAF3 (TNF receptor associated factor 3) #4 | TNF reporter z-score = -0.884
TRAF3 (TNF receptor associated factor 3) #5 | TNF reporter z-score = -1.29
TRAF3 (TNF receptor associated factor 3) #6 | TNF reporter z-score = 0.089

Continued:
MAPK14 (mitogen-activated protein kinase 14) #1 | TNF reporter z-score = -0.112
MAPK14 (mitogen-activated protein kinase 14) #2 | TNF reporter z-score = -1.96 (active)
MAPK14 (mitogen-activated protein kinase 14) #3 | TNF reporter z-score = -1.13
MAPK14 (mitogen-activated protein kinase 14) #4 | TNF reporter z-score = -1.22
MAPK14 (mitogen-activated protein kinase 14) #5 | TNF reporter z-score = -0.192
MAPK14 (mitogen-activated protein kinase 14) #6 | TNF reporter z-score = -1.09
RIPK3 (receptor interacting serine/threonine kinase 3) #1 | TNF reporter z-score = -0.183
RIPK3 (receptor interacting serine/threonine kinase 3) #2 | TNF reporter z-score = -0.199
RIPK3 (receptor interacting serine/threonine kinase 3) #3 | TNF reporter z-score = 0.388
RIPK3 (receptor interacting serine/threonine kinase 3) #4 | TNF reporter z-score = -0.622
RIPK3 (receptor interacting serine/threonine kinase 3) #5 | TNF reporter z-score = -0.31
RIPK3 (receptor interacting serine/threonine kinase 3) #6 | TNF reporter z-score = 0.115
ITGAX (integrin subunit alpha X) #1 | TNF reporter z-score = 0.917
ITGAX (integrin subunit alpha X) #2 | TNF reporter z-score = -1.72 (active)
ITGAX (integrin subunit alpha X) #3 | TNF reporter z-score = -0.0882
ITGAX (integrin subunit alpha X) #4 | TNF reporter z-score = -1.22
ITGAX (integrin subunit alpha X) #5 | TNF reporter z-score = -1.62 (active)
ITGAX (integrin subunit alpha X) #6 | TNF reporter z-score = -0.133
